## Library compounds against nucleic acid targets

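Compounds were printed on reactive glass slides in duplicate spots, a dye-labelled oligonucleotide was laid over them, and the fluorescence left after washing was read. The data file lists only calls. An earlier report of the laboratory on the PreQ1, TPP and SAM-II riboswitches (doi:10.1038/s41467-019-09493-3) used 1 µM RNA for 2 h and required a mean Z-score above 3 (spot signal-to-noise against the whole library), a score well above that on a control array, and duplicate spots agreeing (coefficient of variation under 100); it then also set aside compounds that hit other targets, which this list keeps. The cut-offs behind this list may differ. The calls come from the array alone, and fixing a compound to the slide can hide its binding.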 “active” means called a hit, “inactive” means screened and not called a hit. Compounds were drawn at random from those tested, without regard to their results. A target missing from an entry has no call listed here.

Targets (5′ to 3′):
T1: TPP riboswitch RNA three-way junction, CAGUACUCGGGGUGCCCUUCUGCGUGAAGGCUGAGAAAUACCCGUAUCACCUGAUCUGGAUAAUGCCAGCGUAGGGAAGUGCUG. About 24,000 compounds screened, about 160 hits.
T2: PreQ1 riboswitch RNA pseudoknot, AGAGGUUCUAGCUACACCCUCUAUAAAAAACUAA. From B. subtilis. About 24,000 compounds screened, about 170 hits.
T3: SAM-II riboswitch RNA pseudoknot, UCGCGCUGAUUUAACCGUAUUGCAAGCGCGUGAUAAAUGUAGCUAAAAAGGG. About 21,000 compounds screened, about 200 hits.

Calls for COc1cc(NCc2ccccc2O)c2ncccc2c1 are T1: inactive; T2: inactive; T3: inactive.
Calls for N#CC1=C(N)Oc2c(oc(CO)cc2=O)C1c1ccccc1 (stereo not drawn) are T1: inactive; T2: inactive; T3: inactive.
Calls for CC1=C(CO)C(=O)O[C@@H]([C@@H](C)[C@H]2CC[C@H]3[C@@H]4C[C@H]5O[C@]56[C@@H](O)C=CC(=O)[C@]6(C)[C@@H]4CC[C@]23C)C1 are T1: inactive; T2: inactive; T3: inactive.
Calls for Cn1ccnc1SCCNc1nccc(N2CCC(O)CC2)n1 are T1: inactive; T2: inactive; T3: inactive.
Calls for C[C@@H]1C\C=C/C=C\C=C/C=C\[C@@H](O[C@@H]2O[C@H](C)[C@@H](O)[C@H](N)[C@H]2O)C[C@@H]2O[C@](O)(C[C@@H](O)C[C@@H]3O[C@@H]3/C=C\C(=O)O1)C[C@H](O)[C@@H]2C(=O)O are T1: inactive; T2: inactive; T3: inactive.
Calls for O=C1CC(N2CCN(CCO)CC2)C(=O)N1c1ccc(Cl)cc1 (stereo not drawn) are T1: inactive; T2: inactive; T3: inactive.
Calls for Cc1ccccc1-c1noc(CNCc2cncn2CC(C)C)n1 are T1: inactive; T2: inactive; T3: inactive.
Calls for CCCCSc1nc(N)cc(N[C@@H]2CC[C@@H](N)C2)n1 are T1: inactive; T2: inactive; T3: inactive.
Calls for CNCCN1C(=O)CC[C@H]2CN(C(=O)c3ccc(COC)o3)CC[C@H]21 are T1: inactive; T2: inactive; T3: inactive.
Calls for CC(=O)NC(C)c1ccc(Oc2ccc(OC(C)C)cc2)cc1 (stereo not drawn) are T1: inactive; T2: inactive; T3: inactive.
Calls for O[C@H]1CN(Cc2ccncc2)C[C@@H]1N1CCC(c2nnc3ccccn23)CC1 are T1: inactive; T2: inactive; T3: inactive.
Calls for C=CCn1cc(CNC2CCN(S(C)(=O)=O)CC2)c(C)n1 are T1: inactive; T2: inactive; T3: inactive.
Calls for NS(=O)(=O)c1ccc(Nc2nc(OCC3CCCCC3)c3[nH]cnc3n2)cc1 are T1: inactive; T2: inactive; T3: inactive.
Calls for Cc1ccc(N2C(=O)c3cccnc3C2Nc2ccc(C)cc2Cl)cc1 (stereo not drawn) are T1: inactive; T2: inactive; T3: inactive.
Calls for OC(COc1ccccc1)CSc1nc2ccccc2o1 (stereo not drawn) are T1: inactive; T2: inactive; T3: inactive.
Calls for COc1ccc(C2C(C#N)=C(N)OC3=C2C(=O)CC(C)(C)C3)c(OC)c1OC (stereo not drawn) are T1: inactive; T2: inactive; T3: inactive.
Calls for O=C(N1CCCC1)N1CCN(c2noc(C3CC3)n2)CC(O)C1 (stereo not drawn) are T1: inactive; T2: inactive; T3: inactive.
Calls for O=C(NCC(O)c1ccccn1)c1ccc(-c2ccccc2Cl)o1 (stereo not drawn) are T1: inactive; T2: inactive; T3: inactive.
Calls for CCOc1ccc([C@@H]2C[C@H](c3ccc(Cl)cc3)n3nc(N)nc3N2)cc1 are T1: inactive; T2: inactive; T3: inactive.
Calls for C=CCc1cc(CNCC)cc(OC)c1OCC are T1: inactive; T2: inactive; T3: inactive.
Calls for C=CCOC(=O)C1=C(C)OC(N)=C(C(=O)OC)C12C(=O)N(C)c1ccccc12 (stereo not drawn) are T1: inactive; T2: inactive; T3: inactive.
Calls for Cc1ccc(C(=O)N(CC=Cc2ccccc2)CCO)c(F)c1F are T1: inactive; T2: inactive; T3: inactive.
Calls for CCOC(=O)C1=C(C)OC(N)=C(C#N)C1c1ccc(SC)cc1 (stereo not drawn) are T1: inactive; T2: inactive; T3: inactive.
Calls for COc1ccc(S(=O)(=O)N(CC(=O)NCCCO)Cc2ccccc2)cc1 are T1: inactive; T2: inactive; T3: inactive.
Calls for CCC(CO)N(Cc1csc(C(C)=O)c1)Cc1cccs1 (stereo not drawn) are T1: inactive; T2: inactive; T3: inactive.
Calls for O=C(c1ccc(C2CCCNC2)cc1)N1CCC2(CCCC2)C1 (stereo not drawn) are T1: inactive; T2: inactive; T3: inactive.
Calls for CCCCNc1nc(Oc2ccc(OCCC)nn2)nc(N(C)C)n1 are T1: inactive; T2: inactive.
Calls for CC1(C)CC(=O)C(Br)=C(NCc2ccccc2)C1 are T1: inactive; T2: inactive; T3: inactive.
Calls for COc1cccc(CNCCc2cccc(Cl)c2)c1OC are T1: inactive; T2: inactive; T3: inactive.
Calls for CC(C)(C)c1n[nH]c2c1C(c1c[nH]nc1-c1ccc(F)cc1)C(C#N)=C(N)O2 (stereo not drawn) are T1: inactive; T2: inactive; T3: inactive.
Calls for CC(C)(C)c1oc(C(=O)O)cc1CN are T1: inactive; T2: inactive; T3: inactive.
Calls for COC1OCC(O)C(NC(=O)N(C)N=O)C1O (stereo not drawn) are T1: inactive; T2: inactive; T3: inactive.
Calls for COCCN(C)C[C@@H]1CN(C(=O)C2(c3ccccc3F)CC2)C[C@@H]1CO are T1: inactive; T2: inactive; T3: inactive.
Calls for COC(=O)COc1ccc(CNC(C)C)cc1.Cl are T1: inactive; T2: inactive; T3: inactive.
Calls for Cl.NC(CC(=O)O)c1cccc([N+](=O)[O-])c1 (stereo not drawn) are T1: inactive; T2: inactive; T3: inactive.
Calls for CC1(C)CC(=O)C=C(NCCCNC2CCCCC2)C1 are T1: inactive; T2: inactive; T3: inactive.
Calls for CC(C)N[C@@H]1CC[C@@H]1NC(=O)CCSCc1ccccc1 are T1: inactive; T2: inactive; T3: inactive.

The last 4 entries again:

compound	T1	T2	T3
COC(=O)COc1ccc(CNC(C)C)cc1.Cl	inactive	inactive	inactive
Cl.NC(CC(=O)O)c1cccc([N+](=O)[O-])c1 (stereo not drawn)	inactive	inactive	inactive
CC1(C)CC(=O)C=C(NCCCNC2CCCCC2)C1	inactive	inactive	inactive
CC(C)N[C@@H]1CC[C@@H]1NC(=O)CCSCc1ccccc1	inactive	inactive	inactive

Data from the ROBIN nucleic acid binder screens, doi:10.1002/anie.202211358.